Patent publication US20050255501
For at least one entry, the source does not settle the construct or the ends of the probe. Where cells or extracts were used, other partners may take part.

Target: p53 (Homo sapiens) (UniProt P04637)
Assay: binding assay
Conditions: ChIP-GIS ditag cluster (5 unique ditags) in HCT116 cells after 5-FU; motif within 153 bp peak region; putative site; protein in cells

AGACAAGCCCGGGCAAGGCC (double strand) [novel cluster p53 motif near p21]
binding result: binds
